Test results published in PubChem BioAssay AID1794844 (National Center for Advancing Translational Sciences (NCATS), 2023).
Out of some 2,800 compounds screened, fewer than 10 were called active. Not shown: some 7% with an inconclusive outcome. Calls follow the shape of the dose curve; as a rule, active = well fitted inhibition curve with a large enough effect; inconclusive = small, poorly fitted or top-dose-only effect; inactive = no such curve, though single readings can be large or run the other way. Some of the results follow.

The chains behind the UniProt entries cited, without tags or fusion partners. Where a name states a change or a piece, a line headed by the entry shows the natural chain unless it says otherwise.
UniProt C7C422: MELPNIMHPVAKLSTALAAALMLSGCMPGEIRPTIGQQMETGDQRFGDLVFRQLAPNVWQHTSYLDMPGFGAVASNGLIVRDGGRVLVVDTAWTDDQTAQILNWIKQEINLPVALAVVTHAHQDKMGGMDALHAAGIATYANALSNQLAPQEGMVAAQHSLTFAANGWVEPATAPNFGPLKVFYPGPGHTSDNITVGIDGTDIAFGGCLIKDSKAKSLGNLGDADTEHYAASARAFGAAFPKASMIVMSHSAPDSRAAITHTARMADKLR

These compounds were tested against Metallo-beta-lactamase type 2 (Klebsiella pneumoniae) (UniProt C7C422) (assay: qHTS to identify inhibitors of the New Delhi Metallo-beta-lactamase (NDM): Nitrocefin screen against the machine-based learning selections.). Settings: NDM-1 enzyme, nitrocefin hydrolysis, absorbance 485 nm; activity, negative = inhibition: at the top concentration.
How it was run: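 Hydrolysis by 2 nM NDM-1 was followed by absorbance after >30 min compound preincubation in HEPES pH 7.0 buffer with 1 uM Zn2SO4. For nitrocefin (16.7 uM, 15 min, 485 nm) and meropenem (50 uM, 30 min, 300 nm), each substrate ran on separate plates.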
Also: % of control where 0% means no effect.

activity, negative = inhibition, inactive:
O=C1NCCCc2[nH]c(-c3csc(-c4cnccn4)n3)nc21 0.943%
CN1C[C@@H](NC(=O)c2cccnc2)C[C@H]1c1nc(-c2ccncc2)no1 1.55% [at 57.5 µM]
CC(=O)N1CCC(N2CC[C@H](c3nc4ncccc4[nH]3)C2)CC1 -8.84% [at 57.5 µM]
Cc1ccc(S(=O)(=O)N2CCCC(Cn3c(C)nc4cccnc43)C2)cc1Cl (stereo not given) 6.12%
CCC[C@@H]1CN(C(=O)c2ccc(OC)o2)C[C@H]1C(=O)O 24.3%
O=C(Nc1cccc(F)c1)C1CCN(C(=O)N2CC3CC(C2)[C@H]2CCCC(=O)N2C3)CC1 (stereo not given in full) 26.6%
CCCS(=O)(=O)N1CCC(N2CCCC(C(=O)N3CCOCC3)C2)CC1 (stereo not given) -13.9%
CCCN(C)C(=O)CC1COCCN1C(=O)Nc1cccc(SC)c1 (stereo not given) 2.61%
O=C(CCc1ccccc1)N1CCNc2cnc(Nc3ccc(-n4ccnc4)cc3)nc2C1 -31%
Cc1cc(-c2cnc3[nH]cc(CC(=O)NCc4cccnc4)c3c2)ccn1 3.67% [at 57.5 µM]
Cc1ccccc1[C@H]1C[C@@H](O)[C@@H](O)[C@@H]1NS(C)(=O)=O -0.206% [at 76.7 µM]
O=C(COc1ccccc1)N1CCCC(Nc2ccc(F)cc2)C1 (stereo not given) -0.0388%
Cc1cc(CNC(=O)[C@@H]2CCC[C@@H](NC(=O)c3ccc(C#N)cc3)CN(C)C(=O)C2)no1 1.94%
COc1cc(-c2nc3cc4[nH]c(=O)[nH]c4cc3[nH]2)cc(OC)c1O 5.31%
O=C1Nc2ccc(-c3ccc(Cl)cc3)cc2C(=O)N2CC[C@H](NS(=O)(=O)c3cccs3)C[C@@H]12 15.3%
O=C(NC1CCCCCC1)c1ccc2c(c1)CC(=O)N2Cc1ccc(F)cc1 -0.0308%
CSc1cccc(NC(=O)Cn2c(N3CCOCC3)nc(C)cc2=O)c1 -3.27%
Cc1ccccc1-c1[nH]nc2ncc(-c3ccccc3O)nc12 -8.85% [at 57.5 µM]
COc1ccc(C(=O)N[C@H]2C[C@H]3C(=O)Nc4ccc(-c5ccsc5)cc4C(=O)N3C2)cc1 3.87%
Cc1n[nH]c(C)c1CCC(=O)N1CCCC(c2ccc(C(=O)O)cc2)C1 (stereo not given) 4.03%
O=C1CC(C(=O)O)C2(CCN(c3ncc(C(=O)O)cc3Cl)CC2)N1 (stereo not given) -1.43%
O=C(O)[C@H]1C[C@H](C(=O)NCc2ccccn2)CN(Cc2ccccc2)C1 8.13%
CN1CCN(c2nc3c(c(=O)[nH]2)CCN(Cc2ccccc2C(F)(F)F)CC3)CC1 2.54%
N#Cc1cccc(CN[C@H]2[C@H](O)[C@H](O)C[C@@H]2c2ccc(N3CCOCC3)nc2)c1 1.42% [at 57.5 µM]
COC(=O)[C@H](NC(=O)C1=C[C@@H](NC(=O)Nc2cccc(F)c2)[C@@H](O)[C@H](O)C1)C(C)C -1.49% [at 57.5 µM]
Cc1cccc(-c2cnc3[nH]cc(CC(N)=O)c3c2)c1 -11.5% [at 76.7 µM]
c1ccc(CN2CCNc3cc(Nc4ccc(N5CCOCC5)cc4)ncc3C2)cc1 2.95% [at 57.5 µM]
O=C1CCC(CNC(=O)c2nc(-c3ccccc3)cc3[nH]ccc23)N1 (stereo not given) -3.45% [at 57.5 µM]
COc1cc(C)c2c(c1C)C[C@H](C(C)C(=O)NCc1ccco1)CC2 (stereo not given in full) 10.1% [at 57.5 µM]
COc1ccc(CN2Cc3[nH]cnc3C[C@H]2c2nc(-c3ccc(C(F)(F)F)cc3)no2)cc1 1.26%
Fc1ccc(C2Cn3nnc(-c4nc(-c5ccc6c(c5)OCO6)no4)c3CO2)cc1 (stereo not given) -10.3%
CCCCc1cc(C[C@@H]2C[C@H](NC(=O)NCC)C2(C)C)no1 -8.33% [at 57.5 µM]
Cc1ccc(-c2cc(N3CCCN(C(=O)CCc4ccccc4)CC3)n[nH]2)cc1C -8.23%
O=C(Cc1csc(-c2ccccc2)n1)N[C@H](c1ccccn1)C1CC(O)C1 (stereo not given in full) -2.32%
CN1C[C@@H](NC(=O)Nc2ccccc2)C[C@H]1c1nc(-c2ccc(F)cc2)no1 -6.2% [at 57.5 µM]
COc1cccc(-c2cnc3[nH]cc(CC(N)=O)c3c2)c1 6.17% [at 76.7 µM]
Fc1ccc(CNC[C@H]2Cn3c(-c4ccc5c(c4)OCCO5)cnc3CO2)cc1 -19.3% [at 57.5 µM]
O=C(NCCc1ccccc1)c1cnc2c(c1)N([S+](=O)([O-])c1cccnc1)CCC2 10.2% [at 57.5 µM]
CC(C)(Cc1ccc(F)cc1)NC(=O)C1CCC(=O)N(Cc2ccccn2)C1 (stereo not given) -2.59%
O=C(CCc1ccccc1)N1CCNc2cnc(Nc3cccnc3)nc2C1 2.66% [at 57.5 µM]
CC(C)(C)c1ccc(-c2cc(C[C@H]3CNCC[C@H]3CC(=O)NCc3cccnc3)no2)cc1 -16.2%
CC(C)C[C@@H]1N[C@H](C(=O)NCc2cccs2)Cc2cn(CC3CC3)c3cccc1c23 13.2% [at 57.5 µM]
Cc1noc([C@@H]2CN(C(=O)c3cc(C)n(Cc4ccco4)c3C)C[C@H]2C(N)=O)n1 -5.64%
Nc1ncccc1CN1CC[C@@H]2OCC(=O)N(Cc3ccc(O)cc3)[C@H]2CC1 2.24% [at 57.5 µM]
CC1(C(=O)NCc2cccnc2)CCc2cnc(Nc3ccccc3)nc21 (stereo not given) 3.05% [at 57.5 µM]
O=C(N[C@H](c1cccs1)C1CC(O)C1)c1cccc(-n2cccn2)c1 (stereo not given in full) -1.64%
NC(=O)COc1ccc(C(=O)N[C@@H]2CN(C(=O)NC3CCCCC3)CCC[C@H]2O)cc1 -7.2% [at 57.5 µM]
O=C1Nc2ccc(-c3cccs3)cc2C(=O)N2CC[C@H](NS(=O)(=O)c3ccc(Cl)cc3)C[C@@H]12 0.469%
O=c1cc(-c2cccnc2)oc2c(-c3ccccc3O)nccc12 -6.45% [at 57.5 µM]
O=C(NCc1ccccc1)O[C@@H]1CO[C@H]2[C@@H]1OC[C@@H]2Nc1nccc(-c2ccc3c(c2)OCO3)n1 -3.73%
CCc1noc(-c2cn(C3CCN(C(=O)c4ccc(C)c(C)c4)CC3)nn2)n1 -2.66%
O=C(c1cccc(-n2cnnc2)c1)N1CCCCCC1c1cccc(F)c1 (stereo not given) 2.38%
COc1ccccc1CN1CC(c2noc(-c3ccc(C)cc3C)n2)CC1=O (stereo not given) -2.35%
N#Cc1cccc(C2CCN(C(=O)C3CCN(C(=O)C4CC4)CC3)CC2)c1 -1.31%
CC(C)(CNc1ccc(-c2nc(C3CC3)no2)cn1)N1CCOCC1 3.15%
Cc1cccc(Cl)c1NC(=O)N1CCC2(CC1)C(C(=O)O)CC(=O)N2C (stereo not given) 6.76%
COc1cccc(S(=O)(=O)N2CCC(n3cnnc3-c3ccccc3)CC2)c1 -12.5%
CN(Cc1cc(C[C@H]2CNCC[C@H]2CC(=O)N2CCN(c3ccccc3)CC2)no1)c1ccccc1 -1.55%
Cc1ccc2nc(C3CCN(Cc4cccc(-c5ccsc5)c4)CC3)[nH]c(=O)c2c1 5.38%
COc1ccc(-c2cc(N3CCCN(C(=O)c4cnccn4)CC3)n[nH]2)cc1 5.78%
CSCC(=O)N[C@H]1CCN2C(=O)c3ccccc3NC(=O)[C@H]12 -1.04% [at 57.5 µM]
Cc1nc(N(C)C)ncc1C(=O)NC(C(=O)O)c1c(C)n[nH]c1C (stereo not given) -3.95%
Cc1ccc(CNC(=O)CN2CC3CC(C2)[C@H]2CCCC(=O)N2C3)cc1 (stereo not given in full) -1.63%
Fc1ccc(CN2CC[C@H](c3nc4ccccc4o3)C2)cc1F -0.456% [at 57.5 µM]
Cc1ccccc1Nc1n[nH]c(C(O)c2ccc3c(c2)CCO3)n1 (stereo not given) 1.41% [at 57.5 µM]
COc1ccc(-c2noc([C@@H]3Cc4nc[nH]c4CN3C(=O)Nc3ccc(C)cc3)n2)cc1 -10.4% [at 57.5 µM]
CCCNc1ncc(CN2CCCC(c3ccc(C(=O)O)cc3)C2)cn1 (stereo not given) -0.546%
Cn1cc(CN[C@H]2C[C@H]3C(=O)NC[C@@H](CCC(=O)N4CCCCC4)N3C2)c2ccccc21 1.02%
O[C@@H]1C[C@@H](c2nc(-c3ccccn3)no2)N(Cc2ccccc2)C1 -5.56% [at 57.5 µM]
Cc1cccc(OCC2CCCN(C(=O)c3sc(C(C)C)nc3C)C2)c1 (stereo not given) -8.31%
CN(C)Cc1nnc(C2CCN(C(=O)Nc3cccc(C#N)c3)CC2)n1C -6.13%
Cc1noc(C)c1-c1cnc2[nH]cc(CC(=O)NCc3cccnc3)c2c1 -1.69% [at 57.5 µM]
CN1C(=O)COC[C@@H]1[C@H](O)c1ccc(NC(=O)Nc2ccccc2)cc1 -8.66% [at 57.5 µM]
Cc1cc(-c2cccc(CCOc3cnc4c(ccn4CC(=O)O)c3)c2)ccn1 3.49% [at 57.5 µM]
O=C1[C@@H]2C[C@@H](CN2Cc2ccccc2)Oc2ccccc2N1Cc1ccccc1 -0.2% [at 57.5 µM]
O=C(CN1C(=O)C2(CCNCC2)Nc2ccccc21)NC1CCCCCC1 -0.445%
O=C(CCC[C@H]1NC[C@@H]2C[C@H]1CN(Cc1ccccc1)C2)NCCc1cccnc1 13.8%
COC[C@H]1CCCN1C(=O)C[C@@H]1O[C@H](CNS(C)(=O)=O)[C@@H](O)[C@H]1O -7.39% [at 57.5 µM]
CC(C)c1ccc(NC2=N[C@H]3[C@@H](O)[C@H](O)C[C@H](C(=O)NC4CCCC4)[C@H]3S2)cc1 0.685% [at 57.5 µM]
COc1cccc(Nc2ncc3c(n2)C(C)(C(=O)Nc2nc(C)cs2)CC3)c1 (stereo not given) -1.58% [at 57.5 µM]
Cc1ccsc1C(=O)N1CCN(c2cc(-c3ccccc3)[nH]n2)CC1 -1.86%
O=C(c1ccn[nH]1)N1CCN(Cc2cnn3cccnc23)CC(O)C1 (stereo not given) -3.88%
CC1(C(=O)NCc2ccncc2)CCCc2cnc(Nc3ccccc3)nc21 (stereo not given) 0.595% [at 57.5 µM]
CCN(CC)C(=O)[C@@H]1CCC[C@@H](NC2CCOCC2)CN(C)C(=O)C1 -3.24% [at 57.5 µM]
O=C(Cc1c[nH]c2ncc(-c3cccnc3)cc12)Nc1ccccc1 -7.98% [at 57.5 µM]
CC[C@H]1CN(C(=O)Nc2cccc(C(F)(F)F)c2)CC[C@H]1CC(=O)NC1CC1 9.41% [at 57.5 µM]
CN1C(=O)[C@@H]2C[C@@H](O)CN2C2(CN(CC3CCCCC3)C2)C1=O 0.294% [at 57.5 µM]
COc1ccc(CC2(CO)CCNCC2)cc1 -5.17%
CC1(C)[C@H](Cc2cc(COc3ccccc3)on2)C[C@@H]1NC(=O)Nc1ccccc1 4.01% [at 57.5 µM]
O=c1c2nc(Nc3cccc(F)c3)ccc2ncn1Cc1ccccc1 -1% [at 57.5 µM]
NC(=O)Cc1c[nH]c2ncc(-c3ccc(Oc4ccccc4)cc3)cc12 3.53% [at 57.5 µM]
COc1ccc(C2Cn3nnc(C(=O)N4CCN(C(=O)c5cc(F)ccc5Cl)CC4)c3CO2)cc1 (stereo not given) 2.91%
CCNC(=O)N1C[C@@H](F)[C@@H](OCc2nc3ccc(C)cc3[nH]2)C1 6.72% [at 57.5 µM]
COc1ccccc1-n1cc(-c2ccnc(N3CC(n4cccn4)C3)n2)cn1 1.36%
COc1ccc(CN2C[C@H]3CN(Cc4ccc5c(c4)OCCO5)CCN3C2=O)cc1 4.28% [at 57.5 µM]

An excerpt from above in order of SMILES length, high to low.
activity, negative = inhibition, inactive:
COc1ccc(CN2C[C@H]3CN(Cc4ccc5c(c4)OCCO5)CCN3C2=O)cc1 4.28% [at 57.5 µM]
O[C@@H]1C[C@@H](c2nc(-c3ccccn3)no2)N(Cc2ccccc2)C1 -5.56% [at 57.5 µM]
Cc1cccc(-c2cnc3[nH]cc(CC(N)=O)c3c2)c1 -11.5% [at 76.7 µM]

Structures listed so far with a furan ring, fused or not (three):
activity, negative = inhibition, inactive:
CCC[C@@H]1CN(C(=O)c2ccc(OC)o2)C[C@H]1C(=O)O 24.3%
COc1cc(C)c2c(c1C)C[C@H](C(C)C(=O)NCc1ccco1)CC2 (stereo not given in full) 10.1% [at 57.5 µM]
Cc1noc([C@@H]2CN(C(=O)c3cc(C)n(Cc4ccco4)c3C)C[C@H]2C(N)=O)n1 -5.64%

Two consecutive entries out of the list so far, quoted:
activity, negative = inhibition, inactive:
Cc1cccc(Cl)c1NC(=O)N1CCC2(CC1)C(C(=O)O)CC(=O)N2C (stereo not given) 6.76%
COc1cccc(S(=O)(=O)N2CCC(n3cnnc3-c3ccccc3)CC2)c1 -12.5%
